Test results: the supplement of paper PMC10470496
Structures can show the parent of a compound that is named as a salt. The list shows a part of the results. Many values rest on one well or one pass, so single values are uncertain.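 Three clinical Candida auris isolates (clades III, IV and I) from the CDC resistance isolate bank were grown in RPMI-1640 at 35°C. Growth was background-corrected OD600 relative to same-plate vehicle-only wells. Hits required over 50% inhibition in at least two strains and a plate-corrected B-score above 0.1.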

How the values were obtained:
Experiment in all cases: growth relative to vehicle control (OD600 ratio) (fraction); higher = less inhibition
Conditions in all cases: 24 h
C. auris AR-384 = tested on: C. auris AR-384
C. auris AR-386 = tested on: C. auris AR-386
C. auris AR-387 = tested on: C. auris AR-387

SMILES | growth (C. auris AR-384; 1 µM) | growth (C. auris AR-384; 10 µM) | growth (C. auris AR-386; 1 µM) | growth (C. auris AR-386; 10 µM) | growth (C. auris AR-387; 1 µM) | growth (C. auris AR-387; 10 µM)
Cn1ncc(Cl)c1-c1cc(C(=O)N[C@H](CN)Cc2cccc(F)c2)sc1Cl | 1.09 | 0.8 | 0.9 | 1.02 | 0.79 | 1.24
CS(=O)(=O)c1ccc([C@@H](O)[C@@H](CF)NC(=O)C(Cl)Cl)cc1 [Florfenicol] | 1.04 | 0.7 | 0.85 | 0.93 | 0.91 | 1.01
NCCCC(=O)O [4-Aminobutyric acid] | 0.86 | 0.71 | 1.02 | 0.66 | 1.08 | 0.69
Clc1ccc(C(Cn2ccnc2)OCc2ccsc2Cl)c(Cl)c1 (configuration not stated) [Tioconazole] | 0.41 | 0.19 | 0.75 | 0.47 | 0.07 | 0.04
CCOC(=O)[C@H](CCc1ccccc1)N[C@@H](C)C(=O)N1CCC[C@H]1C(=O)O [Enalapril Maleate] | 1.17 | 1.25 | 0.84 | 1.18 | 1.21 | 1.06
CN1CCN(C2=Nc3cc(Cl)ccc3Nc3ccccc32)CC1 [Clozapine] | 0.93 | 1.1 | 0.97 | 0.73 | 0.88 | 0.76
Cn1c([N+](=O)[O-])cnc1COC(N)=O [Ronidazole] | 1.1 | 0.98 | 1.15 | 0.98 | 1.14 | 1.13
O.O.O.O.O=C([O-])CC(O)(CC(=O)[O-])C(=O)[O-].[Li+].[Li+].[Li+] [Citric acid trilithium salt tetrahydrate] | 0.9 | 0.83 | 0.96 | 0.9 | 0.92 | 1.03
COc1ccc2c3c1O[C@H]1C[C@@H](O)C=C[C@@]31CCN(C)C2 [Galanthamine HBr] | 0.53 | 0.51 | 0.64 | 0.75 | 0.72 | 0.6
COCCc1ccc(OCC(O)CNC(C)C)cc1 (configuration not stated) [Metoprolol Tartrate] | 0.92 | 0.92 | 0.88 | 1.08 | 0.69 | 0.89
COC(=O)N[C@H](C(=O)N1CC2(CC2)C[C@H]1c1nc(-c2ccc3c(c2)C(F)(F)c2cc(-c4ccc5[nH]c([C@@H]6[C@H]7CC[C@H](C7)N6C(=O)[C@@H](NC(=O)OC)C(C)C)nc5c4)ccc2-3)c[nH]1)C(C)C [Ledipasvir (GS5885)] | 0.95 | 0.79 | 0.8 | 0.73 | 0.79 | 0.86
C[C@@H](NCCCc1cccc(C(F)(F)F)c1)c1cccc2ccccc12 [Cinacalcet HCl] | 0.89 | 0.51 | 0.64 | 0.66 | 1.04 | 0.56
O=C(N/N=C/c1ccc([N+](=O)[O-])o1)c1ccc(O)cc1 [Nifuroxazide] | 0.95 | 1 | 0.71 | 1.2 | 1.02 | 1.15
CCn1cc(C(=O)O)c(=O)c2cnc(N3CCCC3)nc21 [Piromidic Acid] | 0.92 | 0.65 | 0.82 | 0.56 | 0.52 | 0.61
CC(C)(C)c1ccc(C(=O)CCCN2CCC(OC(c3ccccc3)c3ccccc3)CC2)cc1 [Ebastine] | 0.87 | 0.92 | 0.92 | 0.75 | 0.8 | 0.79
Nc1nc(O)c2ncn(CCC(CO)CO)c2n1 [Penciclovir] | 0.98 | 0.94 | 1.05 | 1.41 | 1.13 | 0.9
C[C@@H]1COC(Nc2ccc3ncnc(Nc4ccc(OCc5nccs5)c(Cl)c4)c3c2)=N1 [Varlitinib] | 0.92 | 0.8 | 0.92 | 1.21 | 1.02 | 0.75
Cc1c(NC(=O)c2cccnc2)c(=O)n(-c2ccccc2)n1C [Nifenazone] | 0.98 | 0.97 | 0.93 | 0.95 | 0.87 | 0.99
CN/C(=N\CCSCc1nc[nH]c1C)NC#N [Cimetidine] | 0.72 | 0.87 | 1.08 | 0.81 | 1.32 | 1.12
CC[C@H]1OC(=O)[C@H](C)[C@@H](O[C@H]2C[C@@](C)(OC)[C@@H](O)[C@H](C)O2)[C@H](C)[C@@H](O[C@@H]2O[C@H](C)C[C@H](N(C)C)[C@H]2O)[C@](C)(O)C[C@@H](C)CN(C)[C@H](C)[C@@H](O)[C@]1(C)O [Azithromycin Dihydrate] | 0.93 | 0.79 | 0.93 | 0.86 | 0.63 | 0.86
Nc1ccc(S(=O)(=O)Nc2ccccn2)cc1 [Sulfapyridine] | 0.78 | 1.38 | 1.26 | 0.95 | 0.85 | 1.02
Clc1ccc(C(Cn2ccnc2)OCc2c(Cl)cccc2Cl)c(Cl)c1 (configuration not stated) [Isoconazole nitrate] | 0.8 | 0.34 | 0.74 | 0.67 | 0.15 | 0.1
O=C(OCC(O)CO)c1ccccc1Nc1ccnc2cc(Cl)ccc12 (configuration not stated) [Glafenine HCl] | 0.95 | 0.82 | 0.7 | 0.7 | 0.63 | 0.58
CO/N=C(\C(=O)N[C@@H]1C(=O)N2C(C(=O)O)=C(CSC(=O)c3ccco3)CS[C@H]12)c1csc(N)n1 [Ceftiofur HCl] | 0.77 | 0.78 | 1.05 | 0.72 | 0.74 | 0.97

Entries of single compounds, looked up by structure. Order of values: growth (C. auris AR-384; 1 µM) | growth (C. auris AR-384; 10 µM) | growth (C. auris AR-386; 1 µM) | growth (C. auris AR-386; 10 µM) | growth (C. auris AR-387; 1 µM) | growth (C. auris AR-387; 10 µM)
`CC(C)(C)c1ccc(C(=O)CCCN2CCC(OC(c3ccccc3)c3ccccc3)CC2)cc1` [Ebastine] is listed with 0.87 | 0.92 | 0.92 | 0.75 | 0.8 | 0.79
`O=C(N/N=C/c1ccc([N+](=O)[O-])o1)c1ccc(O)cc1` [Nifuroxazide] is listed with 0.95 | 1 | 0.71 | 1.2 | 1.02 | 1.15

More results follow:

SMILES | growth (C. auris AR-384; 1 µM) | growth (C. auris AR-384; 10 µM) | growth (C. auris AR-386; 1 µM) | growth (C. auris AR-386; 10 µM) | growth (C. auris AR-387; 1 µM) | growth (C. auris AR-387; 10 µM)
Cc1ccccc1C(=O)Nc1ccc(C(=O)N2CCCC(O)c3cc(Cl)ccc32)c(C)c1 (configuration not stated) [Tolvaptan] | 0.94 | 0.93 | 0.88 | 1.03 | 1.04 | 0.92
COCCCOc1cc(C[C@@H](C[C@H](N)[C@@H](O)C[C@H](C(=O)NCC(C)(C)C(N)=O)C(C)C)C(C)C)ccc1OC [Aliskiren Hemifumarate] | 0.77 | 0.82 | 1 | 0.95 | 1.03 | 0.95
Cc1ccnc(NS(=O)(=O)c2ccc(N)cc2)n1 [Sulfamerazine] | 0.73 | 0.73 | 1.29 | 0.65 | 0.91 | 0.75
NCCCC(N)(C(=O)O)C(F)F (configuration not stated) [Eflornithine hydrochloride hydrate] | 0.63 | 0.46 | 1.04 | 0.73 | 0.58 | 0.72
OCc1cc([C@@H](O)CNCCCCCCOCCOCc2c(Cl)cccc2Cl)ccc1O [Vilanterol Trifenate] | 1.09 | 1.05 | 0.86 | 1.4 | 1.09 | 1.3
COc1ccccc1OCC(O)CN1CCN(CC(=O)Nc2c(C)cccc2C)CC1 (configuration not stated) [Ranolazine 2HCl] | 0.84 | 0.63 | 0.77 | 0.7 | 0.7 | 0.64
C[C@@H](Oc1cc(-c2cnn(C3CCNCC3)c2)cnc1N)c1c(Cl)ccc(F)c1Cl | 0.69 | 1.07 | 1.16 | 1.06 | 1.02 | 1.02
Cn1nnc2c(C(N)=O)ncn2c1=O [Temozolomide] | 0.95 | 0.55 | 0.59 | 0.91 | 1.01 | 0.71
CN1CC[C@H](c2c(O)cc(O)c3c(=O)cc(-c4ccccc4Cl)oc23)[C@H](O)C1 [Flavopiridol (Alvocidib)] | 0.78 | 0.42 | 1 | 0.56 | 0.82 | 0.66
CC(C)/N=c1\cc2n(-c3ccc(Cl)cc3)c3ccccc3nc-2cc1Nc1ccc(Cl)cc1 [Clofazimine] | 1.01 | 0.78 | 1.15 | 0.88 | 0.82 | 0.61
CN(C)C(=O)c1cc2cnc(Nc3ccc(N4CCNCC4)cn3)nc2n1C1CCCC1 [Ribociclib (LEE011)] | 0.74 | 0.84 | 1.16 | 0.81 | 0.6 | 0.72
CS(=O)(=O)CCNCc1ccc(-c2ccc3ncnc(Nc4ccc(OCc5cccc(F)c5)c(Cl)c4)c3c2)o1 [Lapatinib] | 0.92 | 0.88 | 0.97 | 0.84 | 0.91 | 0.83
COc1cc2c(cc1OC)CN(CCc1ccc(NC(=O)c3cccc4c(=O)c5cccc(OC)c5[nH]c34)cc1)CC2 | 0.87 | 0.79 | 0.66 | 0.87 | 0.82 | 0.73
CC(C)OC(=O)OCOP(=O)(CO[C@H](C)Cn1cnc2c(N)ncnc21)OCOC(=O)OC(C)C [Tenofovir Disoproxil Fumarate] | 1.04 | 0.72 | 0.74 | 0.99 | 1 | 1.1
C#Cc1cccc(Nc2ncnc3cc(OC)c(OCCCCCCC(=O)NO)cc23)c1 | 1.23 | 1.28 | 1.28 | 1 | 1.13 | 1.14
CCOC(=O)C1=C(COCCN)NC(C)=C(C(=O)OC)C1c1ccccc1Cl (configuration not stated) [Amlodipine] | 1.28 | 1.42 | 1.18 | 0.62 | 1.04 | 0.72
Oc1ccc(O)cc1 [Hydroquinone] | 1.14 | 1.2 | 0.96 | 0.9 | 0.97 | 1.18
Nc1ccc2cc3ccc(N)cc3nc2c1 [Proflavine Hemisulfate] | 1.23 | 1.31 | 1.15 | 1.16 | 1.01 | 1.03
CC(C)(C)C(=O)OCOP(=O)(COCCn1cnc2c(N)ncnc21)OCOC(=O)C(C)(C)C [Adefovir Dipivoxil] | 1.1 | 1.22 | 1.25 | 1.33 | 1.13 | 1.27
CC(C)C(=O)Oc1ccc(CO)cc1[C@H](CCN(C(C)C)C(C)C)c1ccccc1 [Fesoterodine Fumarate] | 0.94 | 0.87 | 0.91 | 0.77 | 0.72 | 0.7
O=C(O)c1ccccc1Nc1cccc(C(F)(F)F)c1 [Flufenamic acid] | 0.78 | 0.85 | 0.73 | 0.78 | 0.67 | 0.67
Nc1ccc(S(=O)(=O)Nc2ncccn2)cc1 [Sodium sulfadiazine] | 1.26 | 0.83 | 0.88 | 0.87 | 0.95 | 0.66
CCOC(=O)[C@H]1O[C@@H]1C(=O)N[C@@H](CC(C)C)C(=O)NCCC(C)C [Aloxistatin] | 1.01 | 1.06 | 1.1 | 0.86 | 1.14 | 0.96
